# Source: the supplement of paper PMC8728848
# The list shows a part of the results.
# B1: Thrombomodulin Lectin (Mus musculus) (protein)
# chain: LSALAKLQPTGSQCVEHECFALFQGPATFLDASQACQRLQGHLMTVRSSVAADVISLLLSQSSMDLGPWIGLQLPQGCDDPVHLGPLRGFQWVTGDNHTSYSRWARPNDQTAPLCGPLCVTVSTATEAAPGEPAWEEKPCETETQGFLCEFYFTASCRVDPIPVREDTKEEEGAGEPPVSPTPGSPTGPPSARPVLDEPRVPITQNPCPPLKECPPCAAPDLEGGPSVFIFPPKIKDVLMISLSPMVTCVVVDVSEDDPDVQISWFVNNVEVHTAQTQTHREDYNSTLRVVSALPIQHQDWMSGKAFACAVNNRALPSPIEKTISKPRGPVRAPQVYVLPPPAEEMTKKEFSLTCMITGFLPAEIAVDWTSNGRTEQNYKNTATVLDSDGSYFMYSKLRVQKSTWERGSLFACSVVHEGLHNHLTTKTISRSLGK
# Experiments:
# Assay in all cases: glycan array binding signal (z-score within array); higher = stronger binding
# Settings in all cases: glycan notation: IUPAC condensed, linker removed
# [1] = molecular target: Neu5Ac(a2-6)Gal(b1-4)GlcNAc(b1-6)GalNAc
# Summary of the method: (§1)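 Glycan array binding is given as a within-array Z-score, which can be read as non-binding when negative. The arrays, 3228 of them, came from the Consortium for Functional Glycomics database and were retained only where the protein sequence was available. Z-scores were averaged across arrays of the same protein sequence at different concentrations or buffers and across linkers.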
# [2] = molecular target: Neu5Ac(a2-6)Gal(b1-4)GlcNAc(b1-6)[Gal(b1-3)GlcNAc(b1-3)]Gal(b1-4)Glc
# Summary of the method: as §1
# [3] = molecular target: Neu5Ac(a2-6)Gal(b1-4)GlcNAc(b1-6)[Gal(b1-3)]GalNAc
# Summary of the method: as §1
# [4] = molecular target: Neu5Ac(a2-6)Gal(b1-4)GlcNAc6S
# Summary of the method: as §1
# Neu5Ac(a2-6)GalNAc = molecular target: Neu5Ac(a2-6)GalNAc
# Summary of the method: as §1
# [5] = molecular target: Neu5Ac(a2-6)GalNAc(b1-4)GlcNAc
# Summary of the method: as §1
# [6] = molecular target: Neu5Ac(a2-6)GalNAc(b1-4)GlcNAc6S
# Summary of the method: as §1
# [7] = molecular target: Neu5Ac(a2-6)GlcNAc(b1-4)GlcNAc
# Summary of the method: as §1
# [8] = molecular target: Neu5Ac(a2-6)GlcNAc(b1-4)GlcNAc(b1-4)GlcNAc
# Summary of the method: as §1
# Neu5Ac(a2-8)Neu5Ac = molecular target: Neu5Ac(a2-8)Neu5Ac
# Summary of the method: as §1
# [9] = molecular target: Neu5Ac(a2-8)Neu5Ac(a2-3)Gal(b1-3)GalNAc(b1-4)[Neu5Ac(a2-3)]Gal(b1-4)Glc
# Summary of the method: as §1
# [10] = molecular target: Neu5Ac(a2-8)Neu5Ac(a2-3)Gal(b1-3)GalNAc(b1-4)[Neu5Ac(a2-8)Neu5Ac(a2-3)]Gal(b1-4)Glc
# Summary of the method: as §1
# [11] = molecular target: Neu5Ac(a2-8)Neu5Ac(a2-3)Gal(b1-4)Glc
# Summary of the method: as §1
# [12] = molecular target: Neu5Ac(a2-8)Neu5Ac(a2-3)Gal(b1-4)GlcNAc
# Summary of the method: as §1
# [13] = molecular target: Neu5Ac(a2-8)Neu5Ac(a2-3)[Gal(b1-3)GalNAc(b1-4)]Gal(b1-4)Glc
# Summary of the method: as §1
# [14] = molecular target: Neu5Ac(a2-8)Neu5Ac(a2-3)[GalNAc(b1-4)]Gal(b1-4)Glc
# Summary of the method: as §1
# [15] = molecular target: Neu5Ac(a2-8)Neu5Ac(a2-8)Neu5Ac
# Summary of the method: as §1
# [16] = molecular target: Neu5Ac(a2-8)Neu5Ac(a2-8)Neu5Ac(a2-3)Gal(b1-4)Glc
# Summary of the method: as §1
# [17] = molecular target: Neu5Ac(a2-8)Neu5Ac(a2-8)Neu5Ac(a2-3)[Gal(b1-3)GalNAc(b1-4)]Gal(b1-4)Glc
# Summary of the method: as §1
# [18] = molecular target: Neu5Ac(a2-8)Neu5Ac(a2-8)Neu5Ac(a2-3)[GalNAc(b1-4)]Gal(b1-4)Glc
# Summary of the method: as §1
# [19] = molecular target: Neu5Ac(a2-8)Neu5Ac(a2-8)Neu5Ac(a2-8)Neu5Ac(a2-3)[GalNAc(b1-4)]Gal(b1-4)Glc
# Summary of the method: as §1
# [20] = molecular target: Neu5Ac(a2-8)Neu5Gc(a2-3)Gal(b1-4)GlcNAc
# Summary of the method: as §1
# [21] = molecular target: Neu5Ac(b2-6)Gal(b1-4)GlcNAc
# Summary of the method: as §1
# Neu5Ac(b2-6)GalNAc = molecular target: Neu5Ac(b2-6)GalNAc
# Summary of the method: as §1
# [22] = molecular target: Neu5Ac9Ac(a2-3)Gal(b1-3)GlcNAc
# Summary of the method: as §1
# [23] = molecular target: Neu5Ac9Ac(a2-3)Gal(b1-4)GlcNAc
# Summary of the method: as §1
# [24] = molecular target: Neu5Ac9Ac(a2-6)Gal(b1-4)GlcNAc
# Summary of the method: as §1
# [25] = molecular target: Neu5Gc(a2-3)Gal(b1-3)GlcNAc
# Summary of the method: as §1
# [26] = molecular target: Neu5Gc(a2-3)Gal(b1-3)[Fuc(a1-4)]GlcNAc
# Summary of the method: as §1
# Neu5Gc(a2-3)Gal(b1-4)Glc = molecular target: Neu5Gc(a2-3)Gal(b1-4)Glc
# Summary of the method: as §1
# [27] = molecular target: Neu5Gc(a2-3)Gal(b1-4)GlcNAc
# Summary of the method: as §1
# [28] = molecular target: Neu5Gc(a2-3)Gal(b1-4)GlcNAc(b1-3)Gal(b1-4)GlcNAc(b1-2)Man(a1-3)[Neu5Gc(a2-3)Gal(b1-4)GlcNAc(b1-3)Gal(b1-4)GlcNAc(b1-2)Man(a1-6)]Man(b1-4)GlcNAc(b1-4)GlcNAc
# Summary of the method: as §1
# [29] = molecular target: Neu5Gc(a2-3)Gal(b1-4)[Fuc(a1-3)]GlcNAc
# Summary of the method: as §1
# [30] = molecular target: Neu5Gc(a2-6)Gal(b1-4)GlcNAc
# Summary of the method: as §1
# Neu5Gc(a2-6)GalNAc = molecular target: Neu5Gc(a2-6)GalNAc
# Summary of the method: as §1
# [31] = molecular target: Neu5Gc(a2-8)Neu5Ac(a2-3)Gal(b1-4)GlcNAc
# Summary of the method: as §1
# [32] = molecular target: Neu5Gc(a2-8)Neu5Gc(a2-3)Gal(b1-4)GlcNAc
# Summary of the method: as §1
# [33] = molecular target: Neu5Gc(a2-8)Neu5Gc(a2-3)Gal(b1-4)GlcNAc(b1-3)Gal(b1-4)GlcNAc
# Summary of the method: as §1
binder,measurement,setting,value
B1,glycan array binding signal (z-score),[1],0.784
same,glycan array binding signal (z-score),[2],-0.348
same,glycan array binding signal (z-score),[3],1.19
same,glycan array binding signal (z-score),[4],-1.62
same,glycan array binding signal (z-score),Neu5Ac(a2-6)GalNAc,-0.194
same,glycan array binding signal (z-score),[5],-1.18
same,glycan array binding signal (z-score),[6],-0.087
same,glycan array binding signal (z-score),[7],0.971
same,glycan array binding signal (z-score),[8],1.62
same,glycan array binding signal (z-score),Neu5Ac(a2-8)Neu5Ac,1.39
same,glycan array binding signal (z-score),[9],1.68
same,glycan array binding signal (z-score),[10],-0.913
same,glycan array binding signal (z-score),[11],-0.881
same,glycan array binding signal (z-score),[12],1.08
same,glycan array binding signal (z-score),[13],0.046
same,glycan array binding signal (z-score),[14],0.125
same,glycan array binding signal (z-score),[15],1.16
same,glycan array binding signal (z-score),[16],3.06
same,glycan array binding signal (z-score),[17],1.45
same,glycan array binding signal (z-score),[18],-0.685
same,glycan array binding signal (z-score),[19],-1.28
same,glycan array binding signal (z-score),[20],-1.13
same,glycan array binding signal (z-score),[21],-1.24
same,glycan array binding signal (z-score),Neu5Ac(b2-6)GalNAc,1.37
same,glycan array binding signal (z-score),[22],-0.473
same,glycan array binding signal (z-score),[23],-1.23
same,glycan array binding signal (z-score),[24],-1.01
same,glycan array binding signal (z-score),[25],-0.635
same,glycan array binding signal (z-score),[26],-1.17
same,glycan array binding signal (z-score),Neu5Gc(a2-3)Gal(b1-4)Glc,-0.363
same,glycan array binding signal (z-score),[27],-0.609
same,glycan array binding signal (z-score),[28],0.221
same,glycan array binding signal (z-score),[29],1.05
same,glycan array binding signal (z-score),[30],-0.944
same,glycan array binding signal (z-score),Neu5Gc(a2-6)GalNAc,-0.901
same,glycan array binding signal (z-score),[31],-1.71
same,glycan array binding signal (z-score),[32],-1.76
same,glycan array binding signal (z-score),[33],0.012

# Exported tab-delimited: part of the list above
binder	measurement	setting	value
B1	glycan array binding signal (z-score)	[32]	-1.76
same	glycan array binding signal (z-score)	[33]	0.012
